# In patent EP0233645A2, “Purification of growth hormone releasing factor from yeast strains producing same” (PHILLIPS PETROLEUM COMPANY, priority 1986, dated 1987):
# Part of at least one peptide drawing is inferred or uncertain, most often the ends.
# Tested on: rat pituitary cells in culture
# Assay: in vitro growth hormone releasing factor assay (GH release measured by RIA)
# Format: cell-based
# Conditions: primary rat anterior pituitary cells; standard used for comparison; above the EC50
structure (smiles),measurement,value
CC[C@H](C)[C@H](NC(=O)[C@H](C)NC(=O)[C@H](CC(=O)O)NC(=O)[C@H](C)NC(=O)[C@@H](N)Cc1ccc(O)cc1)C(=O)N[C@@H](Cc1ccccc1)C(=O)N[C@H](C(=O)N[C@@H](CC(N)=O)C(=O)N[C@@H](CO)C(=O)N[C@@H](Cc1ccc(O)cc1)C(=O)N[C@@H](CCCNC(=N)N)C(=O)N[C@@H](CCCCN)C(=O)N[C@H](C(=O)N[C@@H](CC(C)C)C(=O)NCC(=O)N[C@@H](CCC(N)=O)C(=O)N[C@@H](CC(C)C)C(=O)N[C@@H](CO)C(=O)N[C@@H](C)C(=O)N[C@@H](CCCNC(=N)N)C(=O)N[C@@H](CCCCN)C(=O)N[C@@H](CC(C)C)C(=O)N[C@@H](CC(C)C)C(=O)N[C@@H](CCC(N)=O)C(=O)N[C@@H](CC(=O)O)C(=O)N[C@H](C(=O)N[C@@H](CCSC)C(=O)N[C@@H](CO)C(=O)N[C@@H](CCCNC(=N)N)C(=O)N[C@@H](CCC(N)=O)C(=O)N[C@@H](CCC(N)=O)C(=O)NCC(=O)N[C@@H](CCC(=O)O)C(=O)N[C@@H](CO)C(=O)N[C@@H](CC(N)=O)C(=O)N[C@@H](CCC(N)=O)C(=O)N[C@@H](CCC(=O)O)C(=O)N[C@@H](CCCNC(=N)N)C(=O)NCC(=O)N[C@@H](C)C(=O)O)[C@@H](C)CC)C(C)C)[C@@H](C)O [hpGRF (1-40)OH],maximal stimulation in GH secretion,3-5 fold
